PubChem BioAssay AID504774 – Drosophila RNAi Screening Center, 2011
Aim: 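Knock-downs that shift viability of MMS-exposed cells relative to untreated ones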 (primary screen). System: Drosophila Kc167 cells. Reagent: long dsRNA against Drosophila genes, about 0.25 µg dsRNA per well. Timing: about 6 days: 3 days knock-down, then 3 days with or without MMS. Conditions: methyl methanesulphonate 0.004% (w/v) for 3 days after knock-down. Measured: 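ATP-dependent luminescence as a measure of live cells in MMS-exposed wells, quantile normalised within each plate, with replicate values also given as a mean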. Scale: mean viability with MMS and viability with MMS: higher = more surviving cells after MMS.
The screen tested about 23,000 reagents; below is a random part of those that have a named target and a result. 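Values are quantile-normalised luminescence on an arbitrary scale; higher means more cells surviving MMS.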

mean viability with MMS	viability with MMS, replicate 1	viability with MMS, replicate 2	gene knocked down	DRSC id
3.45e6	3.98e6	3.83e6	Zip89B	DRSC16128
3.66e6	4.15e6	4.12e6	CG13004	DRSC19523
3.47e6	3.93e6	3.94e6	Klp68D	DRSC11206
3.46e6	3.92e6	3.90e6	CG10338	DRSC02039
3.72e6	4.26e6	4.15e6	CG11362	DRSC04106
3.75e6	4.25e6	4.16e6	CG11362	DRSC22032
3.52e6	4.02e6	3.96e6	Hip14	DRSC10570
3.56e6	4.07e6	3.99e6	Tom	DRSC11306
3.68e6	4.00e6	4.40e6	CG3862	DRSC00631
3.86e6	4.42e6	4.51e6	CG12112	DRSC17809
3.54e6	4.06e6	3.97e6	CG31156	DRSC15753
3.39e6	3.84e6	3.77e6	CG31156	DRSC15755
3.50e6	4.01e6	3.92e6	robls54B	DRSC05660
3.83e6	4.33e6	4.34e6	Det	DRSC14489
3.41e6	3.80e6	3.94e6	y	DRSC18853
3.45e6	3.89e6	3.94e6	ND1 (retired record)	DRSC21273
3.64e6	4.11e6	4.20e6	CG15387	DRSC00401
3.62e6	4.07e6	4.08e6	CG7607	DRSC10889
3.54e6	4.00e6	4.05e6	plum	DRSC16054
3.67e6	4.30e6	4.01e6	Hat1	DRSC12298
3.41e6	3.92e6	3.75e6	Rpp14b	DRSC15063
3.33e6	3.70e6	3.78e6	CG11426	DRSC11658
3.56e6	4.03e6	4.04e6	CG42246	DRSC17520
3.42e6	3.74e6	3.96e6	Ugt303B2	DRSC14198
3.24e6	3.91e6	3.69e6	Ugt303B2	DRSC22864
3.54e6	3.98e6	4.05e6	Cdc6	DRSC10563
3.59e6	4.11e6	4.01e6	Ir8a	DRSC17817
3.71e6	4.16e6	4.19e6	Ir8a	DRSC17869
3.70e6	4.18e6	4.17e6	GstE6	DRSC06676
3.38e6	3.77e6	3.82e6	CG17652	DRSC00511
3.53e6	4.01e6	3.99e6	CG5762	DRSC15869
3.37e6	3.83e6	3.86e6	GCC185	DRSC15493
3.81e6	4.28e6	4.25e6	Or67b	DRSC11241
3.75e6	4.19e6	4.22e6	CG13074	DRSC09957
3.65e6	4.34e6	3.98e6	CG10799	DRSC06002
3.76e6	3.95e6	4.50e6	Oatp74D	DRSC09491
3.61e6	4.03e6	4.14e6	Oatp74D	DRSC10883
3.46e6	3.98e6	3.84e6	mtDNA-helicase	DRSC02912
3.72e6	4.37e6	4.03e6	fkh	DRSC16949
3.86e6	4.45e6	4.39e6	rb	DRSC18826
3.74e6	4.15e6	4.28e6	CG14777	DRSC18563
3.23e6	3.70e6	3.71e6	scny	DRSC10509
3.21e6	3.59e6	3.59e6	scny	DRSC10510
3.19e6	3.52e6	3.62e6	scny	DRSC23229
3.51e6	3.93e6	4.02e6	MnM	DRSC08423
3.64e6	4.08e6	4.14e6	Pgam5	DRSC18551
3.65e6	4.19e6	4.12e6	ihog	DRSC03157
3.47e6	3.88e6	3.97e6	CG32944	DRSC12138
3.36e6	3.75e6	3.83e6	CG32944	DRSC12341
3.40e6	3.82e6	3.90e6	CG11164	DRSC19392
3.57e6	3.99e6	4.11e6	CG31517	DRSC13010
3.58e6	4.02e6	4.12e6	CG5171	DRSC02823
3.10e6	3.58e6	3.64e6	Wnk	DRSC11813
3.53e6	4.08e6	3.95e6	lgs	DRSC17152
3.53e6	3.96e6	4.03e6	aln	DRSC08240
3.37e6	3.76e6	3.83e6	eIF4E5	DRSC10975
3.63e6	4.08e6	4.15e6	CG17141	DRSC15178
3.52e6	3.88e6	4.08e6	CG13920	DRSC08389
3.48e6	4.15e6	3.66e6	PhKgamma	DRSC20268
3.75e6	4.19e6	4.13e6	frma	DRSC18297
3.45e6	3.82e6	3.99e6	Ubc10	DRSC07568
3.47e6	4.00e6	3.93e6	CG32847	DRSC22901
3.59e6	4.06e6	4.06e6	mRpL3	DRSC20100
3.48e6	4.00e6	4.48e6	CG13227	DRSC06347
3.43e6	3.74e6	4.02e6	RpS5b	DRSC16173
3.48e6	3.91e6	4.02e6	Polr2K	DRSC05535
3.80e6	4.18e6	4.25e6	Argk1	DRSC08959
3.29e6	3.72e6	3.65e6	Argk1	DRSC09668
3.46e6	3.94e6	3.90e6	Argk1	DRSC10460
3.43e6	3.93e6	3.90e6	Argk1	DRSC21558
3.42e6	3.86e6	3.98e6	Argk1	DRSC22665
3.76e6	4.14e6	4.26e6	ReepA	DRSC04572
3.67e6	4.09e6	4.15e6	ReepA	DRSC22475
3.52e6	3.91e6	3.88e6	Alg3	DRSC04700
3.46e6	3.91e6	3.93e6	CG7492	DRSC10855
3.57e6	4.01e6	4.07e6	Obp28a	DRSC03394
3.45e6	3.97e6	3.87e6	CRMP	DRSC12073
3.79e6	4.29e6	4.31e6	CRMP	DRSC12345
3.63e6	4.11e6	4.09e6	CG15249	DRSC17978
3.51e6	4.02e6	3.95e6	Saf-B	DRSC16167
3.52e6	3.92e6	4.07e6	mRpL14	DRSC18597
3.57e6	4.04e6	4.05e6	ninaE	DRSC17014
3.63e6	4.17e6	4.04e6	CG14606	DRSC12550
3.13e6	3.11e6	3.82e6	SmF	DRSC07397
3.60e6	3.99e6	4.13e6	CG5167	DRSC15728
3.41e6	3.97e6	3.71e6	CG13427	DRSC06389
3.32e6	3.83e6	3.62e6	Obp69a	DRSC11247

8 entries from above, limited to “viability with MMS, replicate 1”.
CG15249 [DRSC17978] = 4.11e6
Saf-B [DRSC16167] = 4.02e6
mRpL14 [DRSC18597] = 3.92e6
ninaE [DRSC17014] = 4.04e6
CG14606 [DRSC12550] = 4.17e6
SmF [DRSC07397] = 3.11e6
CG5167 [DRSC15728] = 3.99e6
CG13427 [DRSC06389] = 3.97e6
